Test results taken from the supplement of paper PMC5949888.
Most values lie at the floor of the assay. Slopes are relative: functional sequences can read slightly below zero.

These substances were tested on Saccharomyces cerevisiae PS128 hsf1 delta, HSF1(1-493) fusion (assay: growth estimate (transactivation domain function in HSF1 fusion, heat-shock survival) (a.u. (slope of normalised read count over time)); higher = stronger growth at 37°C, i.e. more transactivation activity). Settings: library: random library.
For LCDVAGNTSHTLEQRRGERG, the growth estimate was < -0.25.
With FQTRMEYELTPTTRIR the growth estimate was < -0.25.
With ISPEGSGHQQLIGRAGPLDF the growth estimate was < -0.25.
For RQG, the growth estimate was < -0.25.
LIPAGTSSDLDTRLRYCTLG was tested, and the growth estimate was < -0.25.
In the case of VDLLNKVLAHVAISSG, the growth estimate is reported as < -0.25.
Work on GSETNVINVLHIGQTLY yielded a growth estimate of -0.246.
GALSLRSVLTHYQPSRRKVK was tested, and the growth estimate was < -0.25.
In the case of GRVTLVLRTIWTLHESLIAS, the growth estimate is reported as < -0.25.
With DWTRIGGPISKGRR the growth estimate was < -0.25.
In the case of RASGA, the growth estimate is reported as < -0.25.
In the case of LHERGATHGG, the growth estimate is reported as < -0.25.
For NLAFKKQTNGFYFSRLALVG, the growth estimate was < -0.25.
In the case of CHRDF, the growth estimate is reported as < -0.25.
For YSAGVSVFLLMIAWSVIKNG, the growth estimate was < -0.25.
For YVPGGGESCSSGDGELWGEN, the growth estimate was < -0.25.
VFSTSYWARDCALEPWMFLS was tested, and the growth estimate was < -0.25.
In the case of FLSLYEGGS, the growth estimate is reported as < -0.25.
TRSIGLTRLRDCWVQHALRA was tested, and the growth estimate was < -0.25.
In the case of LSCP, the growth estimate is reported as -0.191.
With FST the growth estimate was < -0.25.
In the case of VVKPNCRT, the growth estimate is reported as < -0.25.
With NLLESTTPRIQLDI the growth estimate was < -0.25.
For GMLPR, the growth estimate was < -0.25.
In the case of RYRDLTREYGAGKQ, the growth estimate is reported as < -0.25.
In the case of WQPRCSGT, the growth estimate is reported as < -0.25.
For RYHVAGFGYGPDEYVDEPWD, the growth estimate was < -0.25.
With HRLSTESPNREF the growth estimate was < -0.25.
With MKLGRDFRTFSIGWYTQATA the growth estimate was < -0.25.
With SRANLLCNVY the growth estimate was < -0.25.
For SRGSVAQRLKLHVSCQGSLC, the growth estimate was < -0.25.
EQRD was tested, and the growth estimate was < -0.25.
In the case of YIIG, the growth estimate is reported as < -0.25.
For QES, the growth estimate was < -0.25.
In the case of HANACVVGRLISATTPRRAR, the growth estimate is reported as < -0.25.
In the case of IPSTGSGTSNTRPMT, the growth estimate is reported as < -0.25.
PTHDLIRVYILPLLTFYPST was tested, and the growth estimate was < -0.25.
With NGQVLRPAPFPKIDET the growth estimate was < -0.25.
With WCGPATVRKIMQAVIPRQEA the growth estimate was < -0.25.
With GRRYLDRYTDRNGSSTS the growth estimate was < -0.25.
YPITTRVDLLLMIAQ was tested, and the growth estimate was -0.246.
With FPPGRDTSGKVSKLRLRIEA the growth estimate was < -0.25.
With VGRPWRRAGSANTPRRPIRS the growth estimate was < -0.25.
In the case of IQLLANPYQRECGSLGETLR, the growth estimate is reported as < -0.25.
HRVRGRIRIDTN was tested, and the growth estimate was -0.246.
GMLSGRLAC gave a growth estimate of -0.228.
For AMHCRTAV, the growth estimate was < -0.25.
VLPIETGLSPASAYHHGWLP gave a growth estimate of -0.203.
IPDVGRDPKSYSDSTYRSRN was tested, and the growth estimate was < -0.25.
VNHKNPLGHSNECTCDEQLS gave a growth estimate of 0.0245.
For STVPL, the growth estimate was < -0.25.
With TAAVRN the growth estimate was < -0.25.
DLHFSRSRDLRTACC was tested, and the growth estimate was < -0.25.
ELCTIKVHLEN was tested, and the growth estimate was < -0.25.
For TTGSALGQRQIAQIMRFRSF, the growth estimate was < -0.25.
ADAG was tested, and the growth estimate was < -0.25.
TELCEVYQLVYIKAGLLRGA was tested, and the growth estimate was < -0.25.
For QVRLSNATASGLG, the growth estimate was < -0.25.
QCRPYVLTIARPHTRLRDAL was tested, and the growth estimate was < -0.25.
For SAAPCLGRDHLVPNPNGGLS, the growth estimate was < -0.25.
VSKGRSRNNLHSCRDAWTGE was tested, and the growth estimate was < -0.25.
For LNKIPGSKQGS, the growth estimate was < -0.25.
With HSYLKDSTGSILCVLTYIRS the growth estimate was < -0.25.
In the case of HLQRTGHRGSTTCS, the growth estimate is reported as < -0.25.
With GIPDSWDRCTR the growth estimate was < -0.25.
DGMSLKPEWILQVDSLRCFG was tested, and the growth estimate was < -0.25.
For VHVRDRSIARCLISMNGSD, the growth estimate was < -0.25.
With ISF the growth estimate was < -0.25.
In the case of VRIQDCLWAAGRLKFVAYGF, the growth estimate is reported as -0.243.
In the case of PEHRQWWHRRGLSLERYADR, the growth estimate is reported as < -0.25.
In the case of WLH, the growth estimate is reported as < -0.25.
For DRWYIQSPRAPIRTGCHSRS, the growth estimate was < -0.25.
In the case of RLTRVFSTLDGTSTGMKIRR, the growth estimate is reported as < -0.25.
With NGIWGAVRNEVVV the growth estimate was < -0.25.
TRVRCRSKGCLRPLLNRDGG was tested, and the growth estimate was < -0.25.
In the case of YKVGLLRRQKV, the growth estimate is reported as < -0.25.
In the case of HRGILTATVALQNQPGSLRL, the growth estimate is reported as < -0.25.
With GISGFLQGN the growth estimate was < -0.25.
With CVDKRQMRAKS the growth estimate was < -0.25.
For RTIPGRYCRRTRKSDSKTRR, the growth estimate was < -0.25.
In the case of SMAKLQGAGASAVKVVLEEY, the growth estimate is reported as < -0.25.
SYDSPSLQCTYNGWKNQFL was tested, and the growth estimate was < -0.25.
With NSVGYLSITGNE the growth estimate was < -0.25.
QERPYIMLST was tested, and the growth estimate was < -0.25.
Work on RHAVRTTFLCVIYFSLRLVE yielded a growth estimate of -0.245.
With PTCSSAETWMF the growth estimate was < -0.25.
RKV was tested, and the growth estimate was < -0.25.
WGRVAEGDKENGLVSAS was tested, and the growth estimate was < -0.25.
For TWSPAVLLDIRT, the growth estimate was < -0.25.
For LSHP, the growth estimate was < -0.25.
ATGARNADGLQRGITDRSVV was tested, and the growth estimate was < -0.25.
With WMRRRM the growth estimate was < -0.25.
For GLAEHYLTGFAGFTCALRRT, the growth estimate was < -0.25.
CMNLGANRMGVT was tested, and the growth estimate was < -0.25.
CIGLLCNNIGSRIRCIASYI was tested, and the growth estimate was < -0.25.
TVGRKCGIIY was tested, and the growth estimate was < -0.25.
With VRRVGALEKEST the growth estimate was < -0.25.
GLLMVNRPRSSHISA was tested, and the growth estimate was < -0.25.
With GAETCTRPPSPDCTVKLVDR the growth estimate was < -0.25.
In the case of QEKRTE, the growth estimate is reported as < -0.25.
For SIKDGDELFCLARHSTSVLS, the growth estimate was < -0.25.
